In PMC5735095 one finds binding data, which are given here for one substance.

By UniProt entry, the sequences of proteins in these tests, tags left out.
UniProt P12235: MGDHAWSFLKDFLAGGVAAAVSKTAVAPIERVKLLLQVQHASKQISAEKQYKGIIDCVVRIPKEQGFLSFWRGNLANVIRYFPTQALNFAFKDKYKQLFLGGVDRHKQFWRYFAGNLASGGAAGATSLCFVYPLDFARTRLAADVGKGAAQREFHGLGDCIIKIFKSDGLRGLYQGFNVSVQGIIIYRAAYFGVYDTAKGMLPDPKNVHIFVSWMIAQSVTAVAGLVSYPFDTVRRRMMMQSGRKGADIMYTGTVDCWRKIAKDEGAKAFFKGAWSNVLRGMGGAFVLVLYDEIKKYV

In the assay the target is GST-SHP2 fusion protein (human) (UniProt Q06124). The assay can be described thus: affinity purification with mass spectrometry; GST pull-down with GST-SHP2 as bait, silver staining, bound proteins identified by mass spectrometry; source of the prey proteins not stated; only the target purified.

Results are given in words; binding and its absence hold for the method and conditions named. Binding seen in cells or lysates may run through a third protein. Here binding means that the protein was enriched with, or labelled near, the bait; the list need not be complete.

Turning to “ANT1 identified by mass spectrometry among the proteins pulled down by GST-SHP2 (from UniProt P12235 1-298)”, the binding entry is given as “binds”.
